Laboratory results published in PubChem BioAssay AID504834 (National Center for Advancing Translational Sciences (NCATS), 2011).
Hit rate of the full screen: of about 320,000 compounds, about 22,000 (6.9%) were called active. The inconclusive results got no clear call from the source; some entries with a clear call stand among them for comparison. Calls follow the shape of the dose curve; as a rule, active = well fitted inhibition curve with a large enough effect; inconclusive = small, poorly fitted or top-dose-only effect, or another doubt; inactive = no such curve, though single readings can be large or run the other way. Potencies beside an inconclusive call are fits to weak or partial responses and may not hold up.
Potency is read from the fitted curve at half-maximal effect.

Test: Primary qHTS for delayed death inhibitors of the malarial parasite plastid, 96 hour incubation
Settings: P. falciparum luciferase reporter growth; series mostly up to 28.7 µM
Method in brief: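 Readout is luminescence from an integrated firefly luciferase in P. falciparum. Red cells, 2% hematocrit and 0.05% parasitemia final, were cultured with compound through two parasite generations (96 hours) at 37 C, 5% CO2.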
In the case of `O=C(CN1CCCCC1)N/N=C/c1ccccc1OCc1ccccc1`, the Potency is reported as “inactive”.
With `O=C(Cc1ccc2c(c1)CCCC2)Nc1ccccc1Cl` the Potency was inconclusive: 11.7 µM [inhibitor, single point].
For `COc1ccc(C(=O)c2ccc(Cl)c([N+](=O)[O-])c2)cc1`, the Potency was “inactive”.
With `Cc1ccc(S(=O)(=O)Nc2ccc(C(=O)NCc3cccnc3)cc2)cc1` the Potency was inconclusive: 14.7 µM [inhibitor, partial curve, poor fit].
With `CCOC(=O)C1CCCN(C(c2ccccn2)c2c(C)[nH]c3ccccc23)C1` (configuration not stated) the Potency was inconclusive: 4.15 µM [inhibitor, single point].
In the case of `COc1cc(C(C[N+](=O)[O-])c2c(-c3ccccc3)cc3ccccn23)cc(OC)c1OC` (configuration not stated), the Potency is reported as active: 11.7 µM.
For `Cc1cc(C)cc(NC(=O)C2CCN(S(C)(=O)=O)CC2)c1`, the Potency was inconclusive: 18.5 µM [inhibitor, single point].
For `COc1ccc(C(=O)Nc2ccc(C(=O)Nc3cccc(C)c3)cc2)cc1`, the Potency was “inactive”.
For `CS(=O)(=O)Nc1ccc2c(c1)ncn2CCc1ccccc1`, the Potency was “inactive”.
With `O=C(CCCn1c(=S)[nH]c2cc3c(cc2c1=O)OCO3)N1CCN(C2CCCCC2)CC1` the Potency was inconclusive: 18.5 µM [inhibitor, single point].
In the case of `Cc1cccc(NC(=O)CN(c2ccc(F)cc2)S(C)(=O)=O)c1`, the Potency is reported as “inactive”.
With `COc1ccc(C(=O)COC(=O)CN2C(=O)NC(C)(C)C2=O)cc1OC` the Potency was inconclusive: 10.4 µM [inhibitor, single point].
With `CC(C)CNC(=O)c1noc2c1CCCC2` the Potency was “inactive”.
For `CCOC(=O)Cc1csc(NC(=O)c2ccc(N3CCOCC3)cc2[N+](=O)[O-])n1`, the Potency was “inactive”.
In the case of `CC(=O)N(C(C)=O)C1=C(C#N)C2(CCCCC2)Cc2ccccc21`, the Potency is reported as “inactive”.
With `O=C(O)c1ccc(S(=O)(=O)N(Cl)Cl)cc1` the Potency was “inactive”.
With `O=C(NN1c2ccccc2CCc2ccccc21)c1ccccc1Br` the Potency was active: 11.7 µM.
For `COc1ccccc1CCNC(=O)c1cc(C2CC2)nc2c1cnn2C(C)C`, the Potency was active: 10.4 µM.
With `Cc1ccc(C2CC(c3cccs3)=NN2C(=O)CSc2nc(=O)n3cc(C)ccc3n2)cc1` (configuration not stated) the Potency was active: 5.22 µM.
For `CCN(CC)S(=O)(=O)c1cccc(C(=O)N[C@H](C(=O)NNC(=O)c2ccccc2)C(C)C)c1`, the Potency was inconclusive: 18.5 µM [inhibitor, single point].
With `Cc1ccc(NC(=O)CCc2nnc3ccc(NCc4ccco4)nn23)cc1` the Potency was inconclusive: 18.5 µM [inhibitor, single point].
In the case of `O=C(Nc1ccc(N2CCOCC2)cc1N1CCOCC1)c1ccc([N+](=O)[O-])cc1`, the Potency is reported as inconclusive: 0.131 µM [inhibitor, partial curve, poor fit].
In the case of `O=C(O)c1nccnc1C(=O)Nc1ccccc1-c1ccccc1`, the Potency is reported as “inactive”.
With `O=C(CN(Cc1ccc(F)cc1)C(=O)C1CSC(=O)C1)NC1CCCCC1` (configuration not stated) the Potency was inconclusive: 0.657 µM [inhibitor, full curve, poor fit].
In the case of `COc1ccc(N(CC(=O)NCCOc2ccccc2)S(=O)(=O)c2ccc(C)cc2)cc1`, the Potency is reported as “inactive”.
With `CCN1C(=O)[C@H]2[C@@H](c3ccc(OC)cc3)N3C(=O)CN(CCOC)C(=O)[C@@]3(C)[C@H]2C1=O` the Potency was “inactive”.
In the case of `CCc1nnc(NC(=O)C2Cc3ccccc3CN2S(=O)(=O)c2ccc(C)cc2)s1` (configuration not stated), the Potency is reported as inconclusive: 1.04 µM [inhibitor, partial curve, poor fit].
In the case of `CCc1ccc(N(C(=O)c2csnn2)C(C(=O)NC(C)(C)C)c2cccnc2)cc1` (configuration not stated), the Potency is reported as inconclusive: 18.5 µM [inhibitor, single point].
For `Cc1ccc(CCNC(=O)Cn2ncc3c([nH]c4ccccc43)c2=O)cc1`, the Potency was inconclusive: 10.4 µM [inhibitor, single point].
For `NC(=O)C1CC(O)CN1c1nc(CN2CCOCC2)nc2scc(-c3ccccc3)c12` (configuration not stated), the Potency was inconclusive: 1.85 µM [inhibitor, partial curve, poor fit].
With `Cc1nc(C(=O)NNC(=O)c2c(-c3c(Cl)cccc3Cl)noc2C)cs1` the Potency was inconclusive: 10.4 µM [inhibitor, single point].
For `CCOCCOCN(C#N)c1nc(OC)nc(N(C)C)n1`, the Potency was inconclusive: 8.28 µM [inhibitor, partial curve].
With `O=C(CCNC(=O)c1ccccc1Cl)Nc1cccc(S(=O)(=O)N2CCCC2)c1` the Potency was inconclusive: 10.4 µM [inhibitor, partial curve, poor fit].
With `CCNC(=O)c1cccc(NC(=O)c2cc(C3CC3)nc3c2cnn3C(C)C)c1` the Potency was inconclusive: 18.5 µM [inhibitor, single point].
In the case of `COc1nc(-c2ccc(Cl)cc2)ccc1-c1noc(-c2ccco2)n1`, the Potency is reported as inconclusive: 18.5 µM [inhibitor, single point].
With `O=C(O)c1ccc(NC(=O)c2ccccc2NC(=O)c2ccccc2Cl)cc1` the Potency was “inactive”.
In the case of `CCOc1ccc(NC(=O)[C@@H](NC(=O)c2ccccc2)[C@@H](C)CC)cc1`, the Potency is reported as inconclusive: 10.4 µM [inhibitor, single point].
With `C[C@H]1CN=C(N(C)C)N1CC1CCCCC1` the Potency was “inactive”.
For `CCCCN(C)C(=O)C1CCN(c2ccc(S(=O)(=O)N3CCOCC3)cc2[N+](=O)[O-])CC1`, the Potency was active: 9.28 µM.
For `Cc1cc(C(=O)NCc2ccco2)on1`, the Potency was inconclusive: 18.5 µM [inhibitor, single point].
In the case of `COc1cccc(OC)c1OCCCOc1cccc2cccnc12`, the Potency is reported as inconclusive: 3.7 µM [inhibitor, partial curve, poor fit].
In the case of `O=C(NCc1ccccn1)C1CCN(C(=O)c2cc3sccc3n2Cc2ccc(F)cc2)CC1`, the Potency is reported as inconclusive: 18.5 µM [inhibitor, single point].
In the case of `COc1ccc(OCC(=O)Nc2ccc(S(=O)(=O)N(C)c3ccccc3)cc2)cc1`, the Potency is reported as inconclusive: 10.4 µM [inhibitor, partial curve, poor fit].
For `CN(C(=O)CSc1nnc(C2CC2)n1-c1ccccc1)C1CCS(=O)(=O)C1` (configuration not stated), the Potency was inconclusive: 4.15 µM [inhibitor, single point].
For `Cc1ccnc(NC(=O)CCC(=O)N(CC(=O)NC2CCCCC2)Cc2ccc3c(c2)OCO3)c1`, the Potency was inconclusive: 10.4 µM [inhibitor, single point].
In the case of `COc1c(C)c2c(c(O)c1C/C=C(\C)CCC(=O)O)C(=O)OC2`, the Potency is reported as active: 1.61 µM.
For `C[N+]1(CC2COC3(CCCCC3)O2)CCCC1` (configuration not stated), the Potency was inconclusive: 18.5 µM [inhibitor, single point].
With `COc1cc(OC)cc(C(=O)NCCn2ccc3ccccc32)c1` the Potency was inconclusive: 18.5 µM [inhibitor, single point].
In the case of `O=C(CCS(=O)(=O)c1ccc(F)cc1)Nc1nnc(-c2ccc(F)cc2)o1`, the Potency is reported as inconclusive: 16.5 µM [inhibitor, single point].
For `Clc1ccccc1-c1nc(-c2ccncc2)no1`, the Potency was “inactive”.
With `COC(=O)C1=C(C)NC(C)=C(C(=O)OCC2CCCO2)C1c1cccc(Br)c1` (configuration not stated) the Potency was inconclusive: 1.85 µM [inhibitor, full curve, poor fit].
In the case of `COc1ccc2oc(C(=O)OCC(=O)N(C)c3c(N)n(Cc4ccccc4)c(=O)[nH]c3=O)c(C)c2c1`, the Potency is reported as “inactive”.
In the case of `O=C(O)c1cc(S(=O)(=O)NC(Cc2c[nH]c3ccccc23)C(=O)O)ccc1Cl` (configuration not stated), the Potency is reported as “inactive”.
For `Cc1cccc(NC(=O)CCC2CCN(C(=O)c3ccc(C)s3)CC2)c1`, the Potency was inconclusive: 14.7 µM [inhibitor, single point].
In the case of `CC1C(c2ccccc2)C(C#N)(C#N)C2(C#N)C(=O)NC1(N)C2C` (configuration not stated), the Potency is reported as “inactive”.
In the case of `O=C1c2ccccc2C(=O)N1c1nc(-c2cccs2)cs1`, the Potency is reported as active: 14.7 µM.
In the case of `Cc1ccc(CNc2nc(Cl)c(C#N)s2)cc1`, the Potency is reported as “inactive”.
For `COc1cc(C2Nc3ccccc3C(=O)N2c2ccccc2)c(Br)cc1OCC(=O)O` (configuration not stated), the Potency was “inactive”.
With `COc1ccc2cc(-c3ccccc3F)ncc2c1` the Potency was “inactive”.
For `O=C(Nc1ccc(Oc2ccc(Cl)cc2)cc1)c1ncn[nH]1`, the Potency was “inactive”.
In the case of `CC1CC(C)CN(C(=O)c2ccc(-c3ccc([N+](=O)[O-])cc3)o2)C1` (configuration not stated), the Potency is reported as “inactive”.
For `O=C(C1CCN(S(=O)(=O)c2cnc[nH]2)CC1)N1CCN(c2ccc([N+](=O)[O-])cc2)CC1`, the Potency was “inactive”.
In the case of `CCN(CC)c1ccc(NC(=O)COC(=O)/C=C/c2nc3ccccc3s2)cc1`, the Potency is reported as “inactive”.
In the case of `COC(=O)C1=C(c2ccc3ccccc3c2)C[C@@H]2CC[C@H]1N2C(=O)NCc1ccc(C(F)(F)F)cc1`, the Potency is reported as inconclusive: 3.7 µM [inhibitor, partial curve].
In the case of `CCc1cc(=O)oc2c3c(cc(OCC(=O)NCCCn4ccnc4)c12)OC(C)(C)CC3`, the Potency is reported as inconclusive: 3.29 µM [inhibitor, full curve].
With `CCN(CC)c1ccc(CNc2nnnn2C)cc1` the Potency was inconclusive: 18.5 µM [inhibitor, single point].
With `CCN(CC)CCOC(=O)c1ccc(NC(=O)C(C)NC(=O)C23CC4CC(CC(C4)C2)C3)cc1` (configuration not stated) the Potency was active: 11.7 µM.
For `Cc1nc(S(=O)(=O)N2CCOCC2)c(C#N)c(C)c1Cl`, the Potency was inconclusive: 18.5 µM [inhibitor, single point].
With `COc1cccc(CNC(=O)CSc2cc(=O)n(C)c3ccccc23)c1` the Potency was inconclusive: 18.5 µM [inhibitor, single point].
With `O=C(/C=C/c1ccc(Cl)cc1)N1CCN(Cc2ccccc2)CC1` the Potency was inconclusive: 18.5 µM [inhibitor, partial curve, poor fit].
In the case of `CCCCNC(NCCCC)=C(S(=O)(=O)CC)S(=O)(=O)CC`, the Potency is reported as inconclusive: 18.5 µM [inhibitor, single point].
With `CCCOc1ccc(CC(=O)NCC2(c3ccccc3)CCOCC2)cc1OC` the Potency was “inactive”.
